Source: PMC4559962
These are yes or no findings as the source states them, for the method shown. Binding calls can cover weak binding; strength is not graded here. Sequences can lack the tags named with a protein.

Molecular target: T1, HA-Wss1 (recombinant, wild type) (S. cerevisiae) (UniProt P38838)
T1 sequence: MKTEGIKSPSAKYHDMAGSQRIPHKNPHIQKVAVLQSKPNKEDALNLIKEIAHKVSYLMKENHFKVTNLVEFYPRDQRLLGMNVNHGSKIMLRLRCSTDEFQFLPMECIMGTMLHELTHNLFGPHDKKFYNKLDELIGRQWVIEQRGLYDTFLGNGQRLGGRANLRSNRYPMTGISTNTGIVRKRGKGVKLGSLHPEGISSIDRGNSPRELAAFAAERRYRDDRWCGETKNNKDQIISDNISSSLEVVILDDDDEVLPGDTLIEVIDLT
Experiment: pull-down; purified HA-Wss1 (full length or truncated) on anti-HA beads with purified His6-Cdc48, GST-Cdc48 or HF-Doa1 (full length or truncated); western blot; both purified

binding: binds
Substance: GST-Cdc48 N-terminus (truncated version) (S. cerevisiae) (domain or fragment)
